1 molecule from patent publication US20030212034A1, “Method of treatment of obesity and paralyzed muscle and ergogenic aids” (priority 2002, published 2003) can be followed below.

What all share (assay type): in vivo, rat
Data set [1] in a line: ATP and CP in neutralized perchloric acid extracts of muscle.
Data set [2] is described as follows: Muscle glycogen after chronic AICAR injection. The conditions noted are these: chronic AICAR 1 mg/g daily 4 wk, day after last injection.
Data set [3] is described as follows: Muscle weights in 3-day denervated and contralateral control muscles. Conditions: AICAR 1 mg/g at ~0, ~24, ~48 h after denervation. On the procedure: Rats were anesthetized with ether and the sciatic nerve of the right hindlimb was severed. The left hindlimb was sham operated to serve as a control. Both skin wounds were closed with a metal clips. The rats used for the acute study were also implanted with a jugular catheter which was exteriorized on the back of the neck at the time of denervation for rapid administration of anesthesia.
Rats were injected either with AICAR (1 mg in 0.9% NaCl/g body weight) or a 0.9% NaCl solution ˜0, ˜24, and ˜48 hours after denervation and were then sacrificed ˜72 hours after denervation without injection. Rats were anesthetized with sodium pentobarbital (4.8 mg/100 g. body weight), soleus and gastrocnemius muscles from both sham and denervated sides were extracted, and muscles were quick frozen in liquid nitrogen and stored for analysis.

Setting [4] is: red quadriceps, 60 min after AICAR injection, after daily injections for 4 wk.
[5] abbreviates: red quadriceps, 60 min after single AICAR injection 1 mg/g s.c., no chronic treatment.
Setting [6] is: soleus, 60 min after AICAR injection, after daily injections for 4 wk.
[7] abbreviates: soleus, 60 min after single AICAR injection 1 mg/g s.c., no chronic treatment.
The mark [8] stands for this setting: white quadriceps, 60 min after AICAR injection, after daily injections for 4 wk.
Where [9] appears, read: white quadriceps, 60 min after single AICAR injection 1 mg/g s.c., no chronic treatment.

For the molecule `NC(=O)c1ncn([C@@H]2O[C@H](CO)[C@@H](O)[C@H]2O)c1N` [AICAR, 5-aminoimidazole-4-carboxamide-1-β-D-ribofuranoside], the ATP in data set [1] (setting [4]) was 8.6 ± 0.2 µmol/g; in data set [1] (setting [5]), 9.2 ± 0.3 µmol/g; in data set [1] (setting [6]), 5.1 ± 0.5 µmol/g; in data set [1] (setting [7]), 6.5 ± 0.8 µmol/g; in data set [1] (setting [8]), 9.6 ± 0.2 µmol/g; in data set [1] (setting [9]) it was 8.0 ± 0.3 µmol/g. The CP was found to be 19.6 ± 0.4 µmol/g in data set [1] (setting [4]); 22.4 ± 3.5 µmol/g in data set [1] (setting [5]); 13.8 ± 0.9 µmol/g in data set [1] (setting [6]); 12.2 ± 1.2 µmol/g in data set [1] (setting [7]); 21.9 ± 0.8 µmol/g in data set [1] (setting [8]); 17.6 ± 0.8 µmol/g in data set [1] (setting [9]). Also, the Glycogen is 9.1 ± 0.4 mg/g in data set [2] (red quadriceps), 5.8 ± 0.4 mg/g in data set [2] (soleus) and 12.3 ± 0.4 mg/g in data set [2] (white quadriceps). For the same molecule, the “Muscle Weight, Gastrocnemius” value in data set [3] (3-day denervated muscle) was 920 ± 46 mg; in data set [3] (contralateral control muscle) it was 1,055 ± 45 mg. Also, the “Muscle Weight, Soleus” value in data set [3] (3-day denervated muscle) is on record as 67 ± 3.0 mg; in data set [3] (contralateral control muscle) it was 82 ± 4.4 mg.
